Reference: the supplement of paper PMC10849652
The other results are listed elsewhere or left out.

Sequences of proteins named here, by UniProt entry; tags and fusion partners are left off. A change or cut given only in a name is not applied to a line headed by its entry.
UniProt P58004: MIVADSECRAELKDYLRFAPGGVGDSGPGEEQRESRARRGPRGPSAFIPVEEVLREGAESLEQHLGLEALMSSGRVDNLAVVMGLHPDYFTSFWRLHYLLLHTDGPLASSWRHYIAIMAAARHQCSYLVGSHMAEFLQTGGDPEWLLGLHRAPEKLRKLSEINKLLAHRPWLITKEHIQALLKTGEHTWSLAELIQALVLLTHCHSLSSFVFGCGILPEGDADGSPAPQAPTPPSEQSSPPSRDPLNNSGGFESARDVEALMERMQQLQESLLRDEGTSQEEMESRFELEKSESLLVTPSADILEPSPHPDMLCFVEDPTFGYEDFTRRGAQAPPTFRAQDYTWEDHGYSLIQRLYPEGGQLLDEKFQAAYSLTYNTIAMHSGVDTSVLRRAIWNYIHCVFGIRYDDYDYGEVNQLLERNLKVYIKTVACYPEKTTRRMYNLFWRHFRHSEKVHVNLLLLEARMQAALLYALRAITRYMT
UniProt P50454: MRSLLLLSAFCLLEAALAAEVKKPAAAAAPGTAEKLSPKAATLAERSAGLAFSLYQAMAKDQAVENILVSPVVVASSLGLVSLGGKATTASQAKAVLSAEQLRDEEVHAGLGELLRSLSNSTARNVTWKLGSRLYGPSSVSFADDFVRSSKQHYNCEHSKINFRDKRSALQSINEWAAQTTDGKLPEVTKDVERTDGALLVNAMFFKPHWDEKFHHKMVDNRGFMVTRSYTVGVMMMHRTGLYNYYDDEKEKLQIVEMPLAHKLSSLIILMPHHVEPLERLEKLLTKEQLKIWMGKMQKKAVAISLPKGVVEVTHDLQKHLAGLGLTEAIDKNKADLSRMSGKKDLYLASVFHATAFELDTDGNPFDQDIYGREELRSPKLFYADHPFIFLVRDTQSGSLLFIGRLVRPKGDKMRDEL
UniProt O75563, whole entry, looked up: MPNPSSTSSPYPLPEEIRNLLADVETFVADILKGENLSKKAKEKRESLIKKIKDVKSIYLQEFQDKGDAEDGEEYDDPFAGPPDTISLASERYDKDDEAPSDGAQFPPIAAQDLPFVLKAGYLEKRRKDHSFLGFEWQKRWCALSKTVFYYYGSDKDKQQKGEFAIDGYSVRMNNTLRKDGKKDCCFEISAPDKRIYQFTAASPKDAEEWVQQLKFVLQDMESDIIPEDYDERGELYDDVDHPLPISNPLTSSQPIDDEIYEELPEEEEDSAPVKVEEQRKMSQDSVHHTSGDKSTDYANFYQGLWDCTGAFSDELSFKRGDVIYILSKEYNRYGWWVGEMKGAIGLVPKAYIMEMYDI
UniProt Q9H299: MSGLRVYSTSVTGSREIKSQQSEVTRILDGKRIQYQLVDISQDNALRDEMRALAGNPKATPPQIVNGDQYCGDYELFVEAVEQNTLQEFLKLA
UniProt Q9UJC5: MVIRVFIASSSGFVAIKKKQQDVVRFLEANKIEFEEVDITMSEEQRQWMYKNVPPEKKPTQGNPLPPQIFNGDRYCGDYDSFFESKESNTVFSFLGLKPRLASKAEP
UniProt Q99961: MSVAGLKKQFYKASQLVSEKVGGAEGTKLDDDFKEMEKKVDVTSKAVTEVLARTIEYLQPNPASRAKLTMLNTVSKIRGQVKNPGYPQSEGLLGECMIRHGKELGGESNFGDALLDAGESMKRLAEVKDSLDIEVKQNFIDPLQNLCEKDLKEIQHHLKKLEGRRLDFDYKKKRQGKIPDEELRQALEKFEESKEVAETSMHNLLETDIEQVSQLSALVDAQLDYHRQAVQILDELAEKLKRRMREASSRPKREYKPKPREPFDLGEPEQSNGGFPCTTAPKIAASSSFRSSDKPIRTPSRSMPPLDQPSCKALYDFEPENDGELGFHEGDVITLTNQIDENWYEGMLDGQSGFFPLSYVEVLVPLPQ
UniProt Q12872: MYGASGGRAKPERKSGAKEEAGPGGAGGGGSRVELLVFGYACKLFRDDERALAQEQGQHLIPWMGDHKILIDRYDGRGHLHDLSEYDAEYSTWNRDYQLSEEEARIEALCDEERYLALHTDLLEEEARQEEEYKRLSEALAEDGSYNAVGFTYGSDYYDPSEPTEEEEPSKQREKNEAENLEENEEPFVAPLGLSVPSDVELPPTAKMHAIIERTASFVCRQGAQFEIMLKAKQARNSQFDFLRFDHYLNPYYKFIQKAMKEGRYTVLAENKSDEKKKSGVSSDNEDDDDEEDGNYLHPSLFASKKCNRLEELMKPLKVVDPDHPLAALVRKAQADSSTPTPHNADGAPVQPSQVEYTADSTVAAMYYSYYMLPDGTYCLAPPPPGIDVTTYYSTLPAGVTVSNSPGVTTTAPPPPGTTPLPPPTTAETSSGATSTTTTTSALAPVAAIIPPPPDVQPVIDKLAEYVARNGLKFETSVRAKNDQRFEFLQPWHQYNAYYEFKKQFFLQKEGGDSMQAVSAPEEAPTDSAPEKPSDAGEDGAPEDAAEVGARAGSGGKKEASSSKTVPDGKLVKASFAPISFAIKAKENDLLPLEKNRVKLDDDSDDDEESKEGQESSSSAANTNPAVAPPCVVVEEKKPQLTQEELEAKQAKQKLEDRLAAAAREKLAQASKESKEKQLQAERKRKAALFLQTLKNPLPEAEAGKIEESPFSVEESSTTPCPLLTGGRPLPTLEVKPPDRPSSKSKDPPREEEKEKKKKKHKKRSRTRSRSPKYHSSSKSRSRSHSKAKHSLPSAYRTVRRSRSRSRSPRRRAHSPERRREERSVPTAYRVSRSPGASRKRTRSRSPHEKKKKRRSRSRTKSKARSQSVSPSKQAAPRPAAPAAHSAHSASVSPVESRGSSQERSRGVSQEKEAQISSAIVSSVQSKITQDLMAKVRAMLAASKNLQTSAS
UniProt P50453: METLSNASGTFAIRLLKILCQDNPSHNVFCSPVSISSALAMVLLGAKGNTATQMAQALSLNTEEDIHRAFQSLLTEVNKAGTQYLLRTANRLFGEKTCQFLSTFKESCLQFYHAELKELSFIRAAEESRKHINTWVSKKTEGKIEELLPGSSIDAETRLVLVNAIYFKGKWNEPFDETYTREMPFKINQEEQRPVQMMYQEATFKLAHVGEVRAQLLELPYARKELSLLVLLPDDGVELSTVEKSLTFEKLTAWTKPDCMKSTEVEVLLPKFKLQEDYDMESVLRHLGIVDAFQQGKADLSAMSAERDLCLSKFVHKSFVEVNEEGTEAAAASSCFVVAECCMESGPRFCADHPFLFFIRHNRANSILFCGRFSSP
UniProt Q9UGK8: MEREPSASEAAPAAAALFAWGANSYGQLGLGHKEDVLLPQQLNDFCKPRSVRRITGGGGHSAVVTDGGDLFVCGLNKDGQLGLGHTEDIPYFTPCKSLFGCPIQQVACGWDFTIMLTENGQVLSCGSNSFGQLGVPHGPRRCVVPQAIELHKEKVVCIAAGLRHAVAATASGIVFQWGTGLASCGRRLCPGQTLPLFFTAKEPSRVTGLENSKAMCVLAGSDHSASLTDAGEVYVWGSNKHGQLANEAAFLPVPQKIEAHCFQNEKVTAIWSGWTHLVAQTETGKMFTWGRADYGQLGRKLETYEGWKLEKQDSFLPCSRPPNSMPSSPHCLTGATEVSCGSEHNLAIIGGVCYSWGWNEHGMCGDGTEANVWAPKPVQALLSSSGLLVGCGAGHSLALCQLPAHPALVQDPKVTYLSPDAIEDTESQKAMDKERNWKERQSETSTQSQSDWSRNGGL
UniProt Q8WVK7: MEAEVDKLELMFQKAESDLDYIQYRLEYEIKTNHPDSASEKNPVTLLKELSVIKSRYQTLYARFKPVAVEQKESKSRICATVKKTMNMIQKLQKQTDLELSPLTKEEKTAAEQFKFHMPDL
UniProt Q15637: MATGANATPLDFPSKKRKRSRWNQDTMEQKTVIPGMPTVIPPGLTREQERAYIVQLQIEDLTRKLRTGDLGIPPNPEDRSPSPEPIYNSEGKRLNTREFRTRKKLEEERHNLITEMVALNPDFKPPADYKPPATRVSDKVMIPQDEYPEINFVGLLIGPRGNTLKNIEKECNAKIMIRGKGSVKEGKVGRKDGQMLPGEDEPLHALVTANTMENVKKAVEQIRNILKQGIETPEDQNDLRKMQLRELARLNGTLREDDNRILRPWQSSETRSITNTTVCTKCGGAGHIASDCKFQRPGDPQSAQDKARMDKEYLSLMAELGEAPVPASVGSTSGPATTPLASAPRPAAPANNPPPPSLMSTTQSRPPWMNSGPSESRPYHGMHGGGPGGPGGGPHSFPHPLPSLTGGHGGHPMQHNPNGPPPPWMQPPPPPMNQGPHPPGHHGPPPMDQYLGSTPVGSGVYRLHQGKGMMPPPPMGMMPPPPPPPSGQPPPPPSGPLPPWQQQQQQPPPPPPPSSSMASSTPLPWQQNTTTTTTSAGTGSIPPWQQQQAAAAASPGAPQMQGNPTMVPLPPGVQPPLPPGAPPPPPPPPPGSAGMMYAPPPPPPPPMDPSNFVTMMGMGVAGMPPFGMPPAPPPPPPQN
UniProt P84101: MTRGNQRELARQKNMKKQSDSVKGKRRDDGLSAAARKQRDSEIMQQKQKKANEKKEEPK
UniProt Q99720, whole entry, looked up: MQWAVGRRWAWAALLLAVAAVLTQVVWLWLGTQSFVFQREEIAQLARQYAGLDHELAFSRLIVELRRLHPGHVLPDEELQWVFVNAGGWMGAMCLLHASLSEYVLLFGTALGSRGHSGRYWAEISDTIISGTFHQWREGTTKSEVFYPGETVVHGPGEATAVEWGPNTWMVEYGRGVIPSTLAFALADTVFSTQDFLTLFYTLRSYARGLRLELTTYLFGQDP
UniProt O60239: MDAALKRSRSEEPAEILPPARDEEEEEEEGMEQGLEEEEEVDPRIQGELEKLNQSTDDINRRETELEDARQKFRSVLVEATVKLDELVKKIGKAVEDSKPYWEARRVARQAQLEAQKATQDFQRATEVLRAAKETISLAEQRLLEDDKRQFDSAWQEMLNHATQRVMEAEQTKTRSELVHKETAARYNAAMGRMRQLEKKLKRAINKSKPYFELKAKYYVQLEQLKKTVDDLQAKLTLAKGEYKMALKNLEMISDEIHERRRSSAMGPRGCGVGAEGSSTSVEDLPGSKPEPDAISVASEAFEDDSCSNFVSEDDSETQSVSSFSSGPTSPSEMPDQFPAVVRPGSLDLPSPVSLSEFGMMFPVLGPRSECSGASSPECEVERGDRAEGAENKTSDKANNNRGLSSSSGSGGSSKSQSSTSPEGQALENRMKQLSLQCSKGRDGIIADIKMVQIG
UniProt P34896: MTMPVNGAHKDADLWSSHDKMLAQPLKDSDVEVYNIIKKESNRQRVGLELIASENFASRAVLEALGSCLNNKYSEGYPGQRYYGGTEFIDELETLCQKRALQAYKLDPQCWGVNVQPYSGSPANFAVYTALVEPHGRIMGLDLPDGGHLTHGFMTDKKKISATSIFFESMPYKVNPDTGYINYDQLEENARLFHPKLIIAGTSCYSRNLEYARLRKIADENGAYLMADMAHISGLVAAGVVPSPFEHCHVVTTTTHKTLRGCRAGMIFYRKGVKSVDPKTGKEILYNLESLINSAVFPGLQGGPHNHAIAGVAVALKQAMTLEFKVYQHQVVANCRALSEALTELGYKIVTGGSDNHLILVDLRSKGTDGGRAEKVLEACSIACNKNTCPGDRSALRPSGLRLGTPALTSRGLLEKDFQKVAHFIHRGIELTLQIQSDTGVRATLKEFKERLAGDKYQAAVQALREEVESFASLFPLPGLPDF
UniProt O95562: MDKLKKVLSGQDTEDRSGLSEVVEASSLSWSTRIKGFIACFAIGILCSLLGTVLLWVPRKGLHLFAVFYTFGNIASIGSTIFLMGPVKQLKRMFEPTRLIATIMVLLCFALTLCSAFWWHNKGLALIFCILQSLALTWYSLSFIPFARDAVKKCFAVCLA
UniProt Q14493, whole entry, looked up: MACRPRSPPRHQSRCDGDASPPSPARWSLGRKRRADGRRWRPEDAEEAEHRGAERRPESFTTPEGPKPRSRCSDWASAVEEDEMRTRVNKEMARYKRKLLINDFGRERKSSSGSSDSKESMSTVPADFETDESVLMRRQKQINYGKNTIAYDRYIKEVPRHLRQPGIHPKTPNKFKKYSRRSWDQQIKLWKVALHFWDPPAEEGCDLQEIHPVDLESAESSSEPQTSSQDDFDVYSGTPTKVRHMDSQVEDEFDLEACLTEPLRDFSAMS
UniProt P34897: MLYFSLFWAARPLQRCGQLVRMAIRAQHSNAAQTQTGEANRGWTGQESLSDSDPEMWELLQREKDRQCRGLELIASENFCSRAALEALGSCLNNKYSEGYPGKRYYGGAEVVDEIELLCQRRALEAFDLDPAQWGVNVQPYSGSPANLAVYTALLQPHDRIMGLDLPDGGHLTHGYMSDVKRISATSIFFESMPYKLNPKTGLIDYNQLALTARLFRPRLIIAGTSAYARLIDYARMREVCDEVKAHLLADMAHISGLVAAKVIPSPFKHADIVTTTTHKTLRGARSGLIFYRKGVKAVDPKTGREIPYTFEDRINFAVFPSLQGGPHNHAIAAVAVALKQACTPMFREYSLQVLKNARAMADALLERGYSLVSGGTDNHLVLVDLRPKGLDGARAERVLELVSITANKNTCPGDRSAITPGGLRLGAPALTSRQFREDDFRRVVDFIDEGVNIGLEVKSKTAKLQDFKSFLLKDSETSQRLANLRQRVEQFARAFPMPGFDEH

compound: CS(=O)(=O)CCNCc1ccc(-c2ccc3ncnc(Nc4ccc(OCc5cccc(F)c5)c(Cl)c4)c3c2)o1 [lapatinib]; assay: log2 fold change, soluble protein after heating vs DMSO (PISA); higher = thermal stabilisation; K562 lysate, 10 uM; active = over 0.2 and 3.5 SD of the protein, either way, in both replicates (recomputed)
Procedure, shortened: (§1)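 Values give the log-two fold change in thermal stability against solvent controls, from duplicates. Crude K562 extract at 1 mg/mL protein, made by dounce homogenisation in PBS pH 7.4 with 1 mM MgCl2, was treated with 10 μM compound for 30 min. After 3 min heating across 48°C-58°C, aliquots were pooled, adjusted to 0.5% NP-40 at 4°C and centrifuged at 21,000xg for 90 min. The supernatant was measured by TMTpro 16plex LC-MS/MS with channel sums equalised.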

Target	log2 fold change
SESN2 (UniProt P58004)	inactive: -0.085
SLC11A2 isoform 3 (UniProt P49281)	inactive: 0
SERPINH1 (UniProt P50454)	inactive: -0.028
SKAP2 (UniProt O75563)	inactive: -0.003
SH3BGRL3 (UniProt Q9H299)	inactive: 0.023
SLAIN2 (UniProt Q9P270)	inactive: -0.006
SH3BGRL2 (UniProt Q9UJC5)	inactive: 0.021
SH3GL1 (UniProt Q99961)	inactive: 0.013
SIRT5 (UniProt Q9NXA8)	inactive: 0.02
SERBP1 (UniProt Q8NC51)	inactive: -0.013
SFSWAP isoform 2 (UniProt Q12872)	inactive: -0.078
SERPINB9 (UniProt P50453)	inactive: -0.002
SIRT2 (UniProt Q8IXJ6)	inactive: 0.063
SF3B1 (UniProt O75533)	inactive: -0.002
SFXN4 (UniProt Q6P4A7)	inactive: -0.03
SETMAR (UniProt Q53H47)	inactive: -0.015

Target	log2 fold change
SH3BGR (UniProt P55822)	inactive: -0.016
SERGEF (UniProt Q9UGK8)	inactive: -0.013
SKA2 (UniProt Q8WVK7)	inactive: 0.005
SF1 isoform 5 (UniProt Q15637)	inactive: 0.005
SERF2 (UniProt P84101)	inactive: -0.146
SIPA1 (UniProt Q96FS4)	inactive: 0.012
SIGMAR1 (UniProt Q99720)	inactive: -0.006
SERPINB6, A0A087X1N8	inactive: 0.039
SIRT1 (UniProt Q96EB6)	inactive: -0.03
SFPQ (UniProt P23246)	inactive: -0.018
SH3BP5 (UniProt O60239)	inactive: 0.014
SHMT1 (UniProt P34896)	inactive: -0.01
SH2D2A isoform 2 (UniProt Q9NP31)	inactive: 0.102
SFT2D2 (UniProt O95562)	inactive: 0.008
SLBP (UniProt Q14493)	inactive: 0.024
SHMT2 (UniProt P34897)	inactive: 0.012

compound: CS(=O)(=O)N1CCN(Cc2cc3nc(-c4cccc5[nH]ncc45)nc(N4CCOCC4)c3s2)CC1 [pictilisib]; assay: as above
Procedure, shortened: as §1

Target	log2 fold change
SESN2 (UniProt P58004)	inactive: -0.047
SLC11A2 isoform 3 (UniProt P49281)	inactive: -0.014
SERPINH1 (UniProt P50454)	inactive: -0.002
SKAP2 (UniProt O75563)	inactive: -0.007
SH3BGRL3 (UniProt Q9H299)	inactive: 0.023
SLAIN2 (UniProt Q9P270)	inactive: 0.014
SH3BGRL2 (UniProt Q9UJC5)	inactive: 0.012
SH3GL1 (UniProt Q99961)	inactive: 0.005
SIRT5 (UniProt Q9NXA8)	inactive: -0.012
SERBP1 (UniProt Q8NC51)	inactive: 0.054
SFSWAP isoform 2 (UniProt Q12872)	inactive: -0.021
SERPINB9 (UniProt P50453)	inactive: -0.001
SIRT2 (UniProt Q8IXJ6)	inactive: 0.128
SF3B1 (UniProt O75533)	inactive: -0.034
SFXN4 (UniProt Q6P4A7)	inactive: -0.034
SETMAR (UniProt Q53H47)	inactive: -0.035

Target	log2 fold change
SH3BGR (UniProt P55822)	inactive: -0.034
SERGEF (UniProt Q9UGK8)	inactive: -0.056
SKA2 (UniProt Q8WVK7)	inactive: -0.004
SF1 isoform 5 (UniProt Q15637)	inactive: -0.016
SERF2 (UniProt P84101)	inactive: -0.033
SIPA1 (UniProt Q96FS4)	inactive: -0.013
SIGMAR1 (UniProt Q99720)	inactive: -0.064
SERPINB6, A0A087X1N8	inactive: -0.012
SIRT1 (UniProt Q96EB6)	inactive: -0.014
SFPQ (UniProt P23246)	inactive: -0.019
SH3BP5 (UniProt O60239)	inactive: 0.014
SHMT1 (UniProt P34896)	inactive: -0.038
SH2D2A isoform 2 (UniProt Q9NP31)	inactive: 0.043
SFT2D2 (UniProt O95562)	inactive: -0.071
SLBP (UniProt Q14493)	inactive: 0.023
SHMT2 (UniProt P34897)	inactive: -0.013

compound: C[C@@H](Oc1cc(-c2cnn(C3CCNCC3)c2)cnc1N)c1c(Cl)ccc(F)c1Cl [crizotinib]; assay: as above
Procedure, shortened: as §1

Target	log2 fold change
SESN2 (UniProt P58004)	inactive: -0.042
SLC11A2 isoform 3 (UniProt P49281)	inactive: -0.004
SERPINH1 (UniProt P50454)	inactive: 0.012
SKAP2 (UniProt O75563)	inactive: 0.042
SH3BGRL3 (UniProt Q9H299)	inactive: 0.009
SLAIN2 (UniProt Q9P270)	inactive: 0.019
SH3BGRL2 (UniProt Q9UJC5)	inactive: -0.025
SH3GL1 (UniProt Q99961)	inactive: -0.017
SIRT5 (UniProt Q9NXA8)	inactive: -0.004
SERBP1 (UniProt Q8NC51)	inactive: 0.023
SFSWAP isoform 2 (UniProt Q12872)	inactive: 0.011
SERPINB9 (UniProt P50453)	inactive: 0.012
SIRT2 (UniProt Q8IXJ6)	inactive: -0.03
SF3B1 (UniProt O75533)	inactive: -0.044
SFXN4 (UniProt Q6P4A7)	inactive: -0.089
SETMAR (UniProt Q53H47)	inactive: -0.072

Target	log2 fold change
SH3BGR (UniProt P55822)	inactive: 0.005
SERGEF (UniProt Q9UGK8)	inactive: 0.006
SKA2 (UniProt Q8WVK7)	inactive: 0.027
SF1 isoform 5 (UniProt Q15637)	inactive: 0.022
SERF2 (UniProt P84101)	inactive: 0.038
SIPA1 (UniProt Q96FS4)	inactive: -0.037
SIGMAR1 (UniProt Q99720)	inactive: -0.037
SERPINB6, A0A087X1N8	inactive: 0.007
SIRT1 (UniProt Q96EB6)	inactive: -0.022
SFPQ (UniProt P23246)	inactive: 0.057
SH3BP5 (UniProt O60239)	inactive: -0.015
SHMT1 (UniProt P34896)	inactive: 0.005
SH2D2A isoform 2 (UniProt Q9NP31)	inactive: -0.01
SFT2D2 (UniProt O95562)	inactive: 0.036
SLBP (UniProt Q14493)	inactive: 0.01
SHMT2 (UniProt P34897)	inactive: -0.011
